Reference: the supplement of paper PMC11732987, “Enantioselective OTUD7B fragment discovery through chemoproteomics screening and high-throughput optimisation” (Communications Chemistry, 2025)
Some of the results follow. The data scatter; read single values as rough.

The chains behind the UniProt entries cited, without tags or fusion partners. Where a name states a change or a piece, a line headed by the entry shows the natural chain unless it says otherwise. Residues count along the entry.
UniProt Q96IG2: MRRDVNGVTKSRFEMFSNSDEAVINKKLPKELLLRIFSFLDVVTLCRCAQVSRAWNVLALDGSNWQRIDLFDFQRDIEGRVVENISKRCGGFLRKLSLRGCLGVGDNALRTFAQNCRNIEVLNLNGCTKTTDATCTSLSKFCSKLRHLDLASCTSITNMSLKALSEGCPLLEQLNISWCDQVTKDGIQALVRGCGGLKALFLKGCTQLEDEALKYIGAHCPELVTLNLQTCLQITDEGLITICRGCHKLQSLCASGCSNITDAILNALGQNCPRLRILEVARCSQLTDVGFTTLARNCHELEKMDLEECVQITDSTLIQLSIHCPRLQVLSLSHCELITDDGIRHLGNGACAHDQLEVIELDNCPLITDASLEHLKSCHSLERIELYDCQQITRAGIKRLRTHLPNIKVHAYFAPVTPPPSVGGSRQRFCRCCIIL
UniProt Q8TF40: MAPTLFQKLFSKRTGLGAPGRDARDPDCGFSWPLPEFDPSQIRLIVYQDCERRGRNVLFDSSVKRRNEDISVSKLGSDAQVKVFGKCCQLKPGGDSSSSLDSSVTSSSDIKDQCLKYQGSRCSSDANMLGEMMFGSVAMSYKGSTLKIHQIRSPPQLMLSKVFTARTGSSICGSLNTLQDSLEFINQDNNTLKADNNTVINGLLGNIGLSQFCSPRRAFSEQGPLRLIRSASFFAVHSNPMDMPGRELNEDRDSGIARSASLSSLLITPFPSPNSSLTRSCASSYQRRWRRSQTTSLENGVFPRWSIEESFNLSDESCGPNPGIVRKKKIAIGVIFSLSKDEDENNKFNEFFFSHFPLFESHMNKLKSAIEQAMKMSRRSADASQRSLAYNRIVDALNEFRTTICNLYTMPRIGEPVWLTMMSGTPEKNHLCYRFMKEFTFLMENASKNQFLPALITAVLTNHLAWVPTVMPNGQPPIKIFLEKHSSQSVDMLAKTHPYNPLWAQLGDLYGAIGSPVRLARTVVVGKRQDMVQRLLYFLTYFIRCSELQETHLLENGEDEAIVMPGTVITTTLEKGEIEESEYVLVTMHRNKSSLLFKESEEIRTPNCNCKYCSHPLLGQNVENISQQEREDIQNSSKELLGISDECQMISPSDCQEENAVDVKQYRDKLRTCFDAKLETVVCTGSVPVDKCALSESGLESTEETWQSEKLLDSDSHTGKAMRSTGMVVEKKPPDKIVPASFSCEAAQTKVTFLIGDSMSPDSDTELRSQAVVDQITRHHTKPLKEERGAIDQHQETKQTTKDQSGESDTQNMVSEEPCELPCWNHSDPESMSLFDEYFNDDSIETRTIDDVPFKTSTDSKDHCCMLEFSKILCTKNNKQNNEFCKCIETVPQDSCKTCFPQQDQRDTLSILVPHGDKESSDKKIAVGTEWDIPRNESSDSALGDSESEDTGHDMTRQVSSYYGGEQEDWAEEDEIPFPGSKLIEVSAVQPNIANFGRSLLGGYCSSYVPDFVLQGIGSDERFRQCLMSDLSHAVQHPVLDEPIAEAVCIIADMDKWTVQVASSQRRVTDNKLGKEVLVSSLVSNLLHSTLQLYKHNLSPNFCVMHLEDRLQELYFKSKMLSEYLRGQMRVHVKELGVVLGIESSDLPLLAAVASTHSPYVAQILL
UniProt Q96RU3: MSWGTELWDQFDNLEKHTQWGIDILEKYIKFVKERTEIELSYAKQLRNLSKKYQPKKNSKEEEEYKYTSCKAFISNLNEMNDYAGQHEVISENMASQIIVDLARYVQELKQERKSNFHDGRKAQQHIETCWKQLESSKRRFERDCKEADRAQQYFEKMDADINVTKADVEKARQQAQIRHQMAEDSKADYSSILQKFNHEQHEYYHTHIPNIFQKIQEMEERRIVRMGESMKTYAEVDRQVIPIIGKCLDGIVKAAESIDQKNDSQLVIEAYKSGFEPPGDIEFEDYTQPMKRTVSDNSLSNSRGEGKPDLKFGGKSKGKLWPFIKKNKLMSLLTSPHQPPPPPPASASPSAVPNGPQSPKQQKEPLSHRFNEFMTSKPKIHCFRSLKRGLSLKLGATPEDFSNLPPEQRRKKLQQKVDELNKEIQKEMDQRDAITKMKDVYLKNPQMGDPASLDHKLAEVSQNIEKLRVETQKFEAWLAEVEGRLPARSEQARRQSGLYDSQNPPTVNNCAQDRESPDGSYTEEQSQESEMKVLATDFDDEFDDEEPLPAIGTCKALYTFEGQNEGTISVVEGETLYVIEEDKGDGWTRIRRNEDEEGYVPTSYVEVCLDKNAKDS
UniProt Q06546: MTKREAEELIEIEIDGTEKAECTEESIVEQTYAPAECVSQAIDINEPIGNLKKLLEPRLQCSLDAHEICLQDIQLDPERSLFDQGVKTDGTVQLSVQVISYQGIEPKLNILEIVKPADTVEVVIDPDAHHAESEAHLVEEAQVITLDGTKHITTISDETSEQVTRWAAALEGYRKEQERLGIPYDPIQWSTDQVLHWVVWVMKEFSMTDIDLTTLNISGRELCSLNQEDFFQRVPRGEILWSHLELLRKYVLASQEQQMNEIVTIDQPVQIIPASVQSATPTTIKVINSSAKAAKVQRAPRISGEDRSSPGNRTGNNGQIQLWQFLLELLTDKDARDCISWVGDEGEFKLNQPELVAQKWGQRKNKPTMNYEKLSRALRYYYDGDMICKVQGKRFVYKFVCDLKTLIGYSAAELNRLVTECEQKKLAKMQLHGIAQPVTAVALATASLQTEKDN
UniProt Q9H469: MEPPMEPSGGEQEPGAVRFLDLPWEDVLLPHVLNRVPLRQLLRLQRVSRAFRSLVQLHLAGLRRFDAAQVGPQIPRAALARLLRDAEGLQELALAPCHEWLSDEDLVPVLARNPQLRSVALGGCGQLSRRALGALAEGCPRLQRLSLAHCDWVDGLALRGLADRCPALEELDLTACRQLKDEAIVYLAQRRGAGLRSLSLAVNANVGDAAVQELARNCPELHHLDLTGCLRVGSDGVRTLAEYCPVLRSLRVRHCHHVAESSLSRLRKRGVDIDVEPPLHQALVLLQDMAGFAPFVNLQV
UniProt Q13480: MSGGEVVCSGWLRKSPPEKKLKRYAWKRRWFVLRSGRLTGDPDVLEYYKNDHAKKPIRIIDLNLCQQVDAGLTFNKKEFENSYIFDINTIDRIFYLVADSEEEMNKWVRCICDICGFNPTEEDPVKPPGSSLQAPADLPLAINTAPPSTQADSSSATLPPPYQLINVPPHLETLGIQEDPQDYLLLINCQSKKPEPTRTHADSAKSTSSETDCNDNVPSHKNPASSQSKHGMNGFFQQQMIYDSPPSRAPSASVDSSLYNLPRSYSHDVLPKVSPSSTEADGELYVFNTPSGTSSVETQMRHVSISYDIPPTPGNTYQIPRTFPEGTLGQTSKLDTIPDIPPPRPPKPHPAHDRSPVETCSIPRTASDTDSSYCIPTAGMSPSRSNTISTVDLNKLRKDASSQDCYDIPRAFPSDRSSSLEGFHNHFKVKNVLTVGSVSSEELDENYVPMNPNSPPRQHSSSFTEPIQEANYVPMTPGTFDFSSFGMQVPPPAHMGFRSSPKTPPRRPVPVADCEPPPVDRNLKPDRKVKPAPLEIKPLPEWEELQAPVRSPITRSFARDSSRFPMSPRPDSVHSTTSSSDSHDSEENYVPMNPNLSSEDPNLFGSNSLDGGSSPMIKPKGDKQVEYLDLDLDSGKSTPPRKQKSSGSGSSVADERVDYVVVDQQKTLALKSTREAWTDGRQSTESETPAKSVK
UniProt O14772: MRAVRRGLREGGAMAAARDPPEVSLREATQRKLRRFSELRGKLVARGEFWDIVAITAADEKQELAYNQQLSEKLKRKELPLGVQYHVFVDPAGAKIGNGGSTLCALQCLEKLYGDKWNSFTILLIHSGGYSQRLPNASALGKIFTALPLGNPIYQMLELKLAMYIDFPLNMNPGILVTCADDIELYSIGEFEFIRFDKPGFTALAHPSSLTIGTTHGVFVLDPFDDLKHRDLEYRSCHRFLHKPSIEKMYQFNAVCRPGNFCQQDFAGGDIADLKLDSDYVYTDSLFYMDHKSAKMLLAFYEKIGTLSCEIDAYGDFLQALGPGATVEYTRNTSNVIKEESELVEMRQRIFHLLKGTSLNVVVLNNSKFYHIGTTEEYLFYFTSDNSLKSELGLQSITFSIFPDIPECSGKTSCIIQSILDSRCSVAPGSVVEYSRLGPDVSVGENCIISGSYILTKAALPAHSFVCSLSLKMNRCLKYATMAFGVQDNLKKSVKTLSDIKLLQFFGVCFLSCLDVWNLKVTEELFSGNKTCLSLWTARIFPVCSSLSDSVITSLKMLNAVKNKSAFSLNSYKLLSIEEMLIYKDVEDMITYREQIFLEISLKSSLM
UniProt O14976: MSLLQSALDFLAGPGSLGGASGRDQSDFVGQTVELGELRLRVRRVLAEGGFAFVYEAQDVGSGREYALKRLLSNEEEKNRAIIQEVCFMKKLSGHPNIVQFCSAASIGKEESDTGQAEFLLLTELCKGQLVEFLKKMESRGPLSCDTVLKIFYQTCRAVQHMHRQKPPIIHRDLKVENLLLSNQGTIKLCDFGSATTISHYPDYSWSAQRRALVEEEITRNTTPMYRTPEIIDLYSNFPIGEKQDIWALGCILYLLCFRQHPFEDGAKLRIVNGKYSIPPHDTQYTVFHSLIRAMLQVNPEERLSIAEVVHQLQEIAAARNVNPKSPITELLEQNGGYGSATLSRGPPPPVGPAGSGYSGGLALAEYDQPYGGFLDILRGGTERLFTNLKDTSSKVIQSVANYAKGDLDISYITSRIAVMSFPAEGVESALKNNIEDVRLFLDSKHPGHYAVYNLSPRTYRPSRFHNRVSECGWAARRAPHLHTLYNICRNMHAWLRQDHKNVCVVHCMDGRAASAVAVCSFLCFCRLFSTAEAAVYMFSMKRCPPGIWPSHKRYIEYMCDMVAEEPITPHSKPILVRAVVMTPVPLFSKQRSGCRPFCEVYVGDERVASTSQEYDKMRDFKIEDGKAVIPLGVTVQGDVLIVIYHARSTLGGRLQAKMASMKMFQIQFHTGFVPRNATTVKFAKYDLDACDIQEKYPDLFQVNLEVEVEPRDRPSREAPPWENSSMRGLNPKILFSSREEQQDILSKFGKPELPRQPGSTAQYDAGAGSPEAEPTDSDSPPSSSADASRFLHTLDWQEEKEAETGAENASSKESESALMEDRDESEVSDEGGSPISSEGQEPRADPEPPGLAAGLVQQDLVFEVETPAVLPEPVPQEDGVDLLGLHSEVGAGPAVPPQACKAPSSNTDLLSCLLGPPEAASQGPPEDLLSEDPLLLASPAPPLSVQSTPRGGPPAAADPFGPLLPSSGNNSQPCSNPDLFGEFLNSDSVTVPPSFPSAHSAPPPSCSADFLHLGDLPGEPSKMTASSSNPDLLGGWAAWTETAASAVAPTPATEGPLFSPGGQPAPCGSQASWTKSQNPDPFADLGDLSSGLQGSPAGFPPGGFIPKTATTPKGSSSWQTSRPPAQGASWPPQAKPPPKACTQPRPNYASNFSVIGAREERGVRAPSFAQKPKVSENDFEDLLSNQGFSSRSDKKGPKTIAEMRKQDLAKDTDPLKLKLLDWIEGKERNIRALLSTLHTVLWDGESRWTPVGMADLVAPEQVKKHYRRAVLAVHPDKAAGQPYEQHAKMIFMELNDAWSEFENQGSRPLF
UniProt Q9NSD9: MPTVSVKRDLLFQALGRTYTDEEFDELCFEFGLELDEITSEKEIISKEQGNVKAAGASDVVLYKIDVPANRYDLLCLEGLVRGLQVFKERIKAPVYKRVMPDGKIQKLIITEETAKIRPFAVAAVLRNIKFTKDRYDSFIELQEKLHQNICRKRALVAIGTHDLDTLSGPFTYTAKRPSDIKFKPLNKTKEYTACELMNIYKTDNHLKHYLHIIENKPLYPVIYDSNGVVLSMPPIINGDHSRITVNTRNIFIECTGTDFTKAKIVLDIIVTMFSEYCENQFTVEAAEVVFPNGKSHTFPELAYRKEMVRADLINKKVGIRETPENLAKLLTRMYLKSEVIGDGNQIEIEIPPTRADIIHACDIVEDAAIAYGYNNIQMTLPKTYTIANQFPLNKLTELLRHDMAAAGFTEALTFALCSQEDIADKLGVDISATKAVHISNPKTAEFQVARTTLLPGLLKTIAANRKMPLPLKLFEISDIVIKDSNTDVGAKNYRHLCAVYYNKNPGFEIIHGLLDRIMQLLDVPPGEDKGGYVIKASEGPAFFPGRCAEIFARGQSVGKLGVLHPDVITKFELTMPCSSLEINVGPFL
UniProt O94915, 888-907: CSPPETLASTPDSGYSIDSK

compound: ClCC(=O)N[C@H]1CCCc2ccccc12; assay: log2 mean competition ratio of IA-DTB cysteine labelling (DMSO/compound) (log2 ratio); higher = stronger cysteine engagement by compound; conditions: 50 µM; treatment time: 4 h; cell line lysate: HEK293T
Procedure: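 IA-DTB competitive cysteine chemoproteomics in HEK293T RIPA lysate. Lysates were treated with compound 29 or 30 at 50 or 200 µM for 4 h, then IA-DTB (500 µM, 1 h), trypsin-digested, NeutrAvidin-enriched and analysed by diaPASEF. Competition ratio = intensity DMSO / intensity compound (n=4 treated, n=64 DMSO); binding: mean log2 CR ≥ 1 and p ≤ 0.05 plus QC filters. Target is the cysteine site.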

Target | log2 mean competition ratio
GATAD1 C179 | -0.156
FASN C1227 | -0.405
FYCO1 C1110 (UniProt Q9BQS8) | 0.0671
FBXL20 C298 (UniProt Q96IG2) | 0.0903
FCSK C1000 (UniProt Q8N0W3) | -0.358
FOXO4 C243 (UniProt P98177) | 0.0576
FNIP1 C281 (UniProt Q8TF40) | 0.144
FNBP1 C609 (UniProt Q96RU3) | 0.192
G3BP2 C73 (UniProt Q9UN86) | 0.266
GABPA C223 (UniProt Q06546) | -0.113
FBXL15 C244 (UniProt Q9H469) | 0.0241
GAB1 C360 (UniProt Q13480) | -0.25
FPGT C414 (UniProt O14772) | -0.216
FASTKD1 C300 (UniProt Q53R41) | -0.275
FLNC C2660 (UniProt Q14315) | -0.0439
GAK C87 (UniProt O14976) | 0.0213
FARSB C195 (UniProt Q9NSD9) | -0.11
FRYL C888 (UniProt O94915) | -0.00548
GAN C452 (UniProt Q9H2C0) | -0.592
FOXF2 C404 | 0.556

same assay, conditions: 200 µM; treatment time: 4 h; cell line lysate: HEK293T

Target | log2 mean competition ratio
GATAD1 C179 | -0.0435
FASN C1227 | -0.0443
FYCO1 C1110 (UniProt Q9BQS8) | 0.0146
FBXL20 C298 (UniProt Q96IG2) | -0.163
FCSK C1000 (UniProt Q8N0W3) | 0.548
FOXO4 C243 (UniProt P98177) | 0.249
FNIP1 C281 (UniProt Q8TF40) | 0.138
FNBP1 C609 (UniProt Q96RU3) | 0.0324
G3BP2 C73 (UniProt Q9UN86) | 0.21
GABPA C223 (UniProt Q06546) | -0.297
FBXL15 C244 (UniProt Q9H469) | 0.386
GAB1 C360 (UniProt Q13480) | 0.159
FPGT C414 (UniProt O14772) | -0.176
FASTKD1 C300 (UniProt Q53R41) | -0.0521
FLNC C2660 (UniProt Q14315) | 0.151
GAK C87 (UniProt O14976) | 0.309
FARSB C195 (UniProt Q9NSD9) | -0.114
FRYL C888 (UniProt O94915) | -0.402
GAN C452 (UniProt Q9H2C0) | 0.0701
FOXF2 C404 | 0.6
